Measurements taken from patent publication US7910591B2, “Piperazine derivatives of alkyl oxindoles” (EGIS Gyogyszergyar NYRT., priority 2004, dated 2011).
Where a name gives a salt, the structure may show the parent alone. For at least one compound, name, drawing or mass did not settle the structure.

target: α1 receptor; assay: α1 receptor binding; design: species or system rat; conditions: isolated frontal cortex preparation of male Wistar rats; ligand 3H-prazosine 0.3 nM; non-specific binding prazosine 1 μM
Method: For the determination of 5-HT7 receptor affinity human cloned receptors were used. The α1 receptor affinities were determined from isolated frontal cortex preparation of male Wistar rats weighing 120-200 g. The protein contents of membrane preparations were determined by the method of Lowry (1951).
In the course of 5-HT7 and α1 receptor binding studies the ligands were ^3H-lizergic acid diethylamide (LSD) (1.0 nM) and ^3H-prazosine (0.3 nM). Clozapine (25 μM) and prazosine (1 μM) were used for the measurement of non-specific bindings. The α1 receptor binding studies were carried out according to the methods of Reader, and Greengrass (Reader, T. A., Briere, R., Grondin, L.: J. Neural Transm. 68, p. 79 (1987); Greengrass, P., Brenner, R.: Eur. J. Pharmacol. 55, p. 323 (1979)).
IC50 is the concentration where the difference between the whole binding and non-specific binding is 50%. The compounds with an IC50 value smaller than […] were considered effective in this test.

`COc1cccc(N2CCN(CCCCC3C(=O)Nc4ccccc43)CC2)c1` (stereo not drawn) [Example 9, 3-{4-[4-(3-Methoxyphenyl)-piperazine-1-yl]-butyl}-1,3-dihydro-2H-indol-2-one Monooxalate] and `COc1ccc(Cl)cc1N1CCN(CCCCC2C(=O)Nc3ccccc32)CC1` (stereo not drawn) [Example 11, 3-{4-[4-(5-Chloro-2-methoxyphenyl)-piperazine-1-yl]-butyl}-1,3-dihydro-2H-indol-2-one Monohydrochloride] cannot be ordered by IC50: < 50 nM for the first, < 50 nM for the second.

With `O=C1Nc2ccccc2C1CCCCN1CCN(c2cc(Cl)cc3c2OCCO3)CC1` (stereo not drawn) [Example 6, 3-{4-[4-(7-Chloro-2,3-dihydrobenzo[1,4]dioxin-5-yl)-piperazine-1-yl]-butyl}-1,3-dihydro-2H-indol-2-one Monooxalate] the IC50 was < 100 nM.
